Among the data in PMC9299292, “The nuclear egress complex of Epstein-Barr virus buds membranes through an oligomerization-driven mechanism” (PLoS Pathogens, 2022) are binding values, retold here.

Results are given in words; binding and its absence hold for the method and conditions named. Some entries that bind do so weakly or less than the wild type.

The target in experiment [1] is EBV BFRF1 1-228-His8 (Epstein-Barr virus (strain B95-8)) (UniProt P03185). The experiment in a line: co-purification (tandem affinity + SEC); co-expressed in E. coli; Ni-NTA (His-SUMO on BFLF2), then glutathione Sepharose (GST on BFRF1), tags cleaved on the column with PreScission protease, some constructs over HisTrap HP, then S75 10/300 size exclusion in 20 mM buffer, 100 mM NaCl, 0.5 mM TCEP; 4°C. For orientation: SEC sorts molecules by how far they enter the pores of the column.

In experiment [2] the target is T1, EBV BFRF1 1-195 (Epstein-Barr virus (strain B95-8)) (UniProt P03185).
T1 sequence: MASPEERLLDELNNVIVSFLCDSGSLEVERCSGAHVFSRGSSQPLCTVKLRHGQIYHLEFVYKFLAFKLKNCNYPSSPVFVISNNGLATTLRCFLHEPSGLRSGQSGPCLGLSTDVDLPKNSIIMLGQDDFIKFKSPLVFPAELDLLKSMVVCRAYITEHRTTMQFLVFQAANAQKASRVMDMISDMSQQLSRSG
The experiment in a line: crystal structure; EBV NEC195Δ65; hanging drops at 20°C, protein in 20 mM HEPES pH 8.0, 100 mM NaCl, 0.5 mM TCEP over 25% PEG 3350, 0.1 M Tris-HCl pH 8.5, 0.2 M Li2SO4; space group P4(3)2(1)2, five heterodimers in the asymmetric unit; 3.97 Å; both purified.

Turning to “EBV BFLF2 45-318 (from UniProt P0CK47 45-318) (domain or fragment)”, the binding entry in experiment [1] was “binds”.

As to “EBV BFLF2 16-318 (from UniProt P0CK47 16-318) (domain or fragment)”, in experiment [1], the binding result is “binds”.

Regarding “EBV BFLF2 25-318 (from UniProt P0CK47 25-318) (domain or fragment)”, the binding result in experiment [1] is recorded as “binds”.

Turning to “EBV BFLF2 35-318 (from UniProt P0CK47 35-318) (domain or fragment)”, the binding result in experiment [1] was “binds”.

B1: EBV BFLF2 66-318 (domain or fragment, UniProt P0CK47 66-318)
chain: RSICSRHTRHGVDRSHFSLRDFFRGISANFELGKDFLREMNTPIHVSEAVFLPLSLCTLSPGRCLRLSPFGHSLTLGSHCEICINRSQVHVPQEFSSTQLSFFNNVHKIIPNKTFYVSLLSSSPSAVKAGLSQPSLLYAYLVTGHFCGTICPIFSTNGKGRLIMHLLLQGTSLHIPETCLKLLCENIGPTYELAVDLVGDAFCIKVSPRDTVYEKAVNVDEDAIYEAIKDLECGDELRLQIINYTQLILENKQ
As to B1, the binding entry in experiment [2] is “binds”.
